Source: patent publication US20150104527A1, “AQUEOUS IONIC SOLUTION CONTAINING SEAWATER AND AT LEAST ONE COMPOUND THAT IS ORIGINALLY IMMISCIBLE WITH SEA WATER” (LABORATOIRE DE LA MER, priority 2011, published 2015)
At least one read-out could not be matched to a standard name with certainty.

Experiment: Limpidity / appearance of the aqueous ionic solution based on seawater
Type: physicochemical
Conditions: counter-examples: same conditions, other solubiliser instead of cationic phospholipid of natural origin; limpidity by optical density

OCC(O)CO [glycerine]
appearance / behaviour with other solubiliser in seawater: opalescent solution
